Some of these results come from one statement about several compounds together.
Experiments:
[1] = target: T1, RBP4-TTR interaction (Homo sapiens, UniProt P02753); assay: TR-FRET (HTRF) assay for retinol-induced RBP4-TTR interaction; assay type: biochemical; settings: in vitro; stated 'and/or' with RBP4 binding; numbers only in FIG. 8-14
T1 construct: human RBP4 fragment (amino acids 19-201) was expressed in the Gold (DE3)pLysS E. coli strain; host or cells: E. coli Gold (DE3)pLysS (Stratagene), pMAL-c4x vector

[2] = target: RBP4 (Homo sapiens, UniProt P02753); assay: Scintillation proximity RBP4 binding assay (SPA); set-up: Untagged human RBP4 purified from urine of tubular proteinuria patients was purchased from Fitzgerald Industries International; purchased Fitzgerald Industries International; host or cells: human urine (tubular proteinuria patients); settings: in vitro; stated 'and/or' with RBP4-TTR antagonism; numbers only in FIG. 8-14

SMILES	antagonism of retinol-dependent RBP4-TTR interaction (HTRF) [1]	RBP4 binding (SPA) [2]
Cc1ccc2nnc(C(=O)N3CCC(c4ccccc4C(F)(F)F)CC3)n2c1 [Compound 42]	antagonize RBP4-TTR interaction in vitro at biologically significant concentrations	bind RBP4 in vitro
O=C(c1nnc2ccc(C(F)(F)F)cn12)N1CCC(c2ccccc2C(F)(F)F)CC1 [Compound 44]	antagonize RBP4-TTR interaction in vitro at biologically significant concentrations	bind RBP4 in vitro
N#Cc1ccc2nnc(C(=O)N3CCC(c4ccccc4C(F)(F)F)CC3)n2c1 [Compound 47]	antagonize RBP4-TTR interaction in vitro at biologically significant concentrations	
O=C(c1n[nH]c2ccccc12)N1CCC(c2ccccc2C(F)(F)F)CC1 [Compound 56]	antagonize RBP4-TTR interaction in vitro at biologically significant concentrations	bind RBP4 in vitro
O=C(c1n[nH]c2ccc(F)cc12)N1CCC(c2ccccc2C(F)(F)F)CC1 [Compound 59]	antagonize RBP4-TTR interaction in vitro at biologically significant concentrations	bind RBP4 in vitro
CCn1nc(C(=O)N2CCC(c3ccccc3C(F)(F)F)CC2)c2ccc(F)cc21 [Compound 60]	antagonize RBP4-TTR interaction in vitro at biologically significant concentrations	
O=C(c1nn(C2COC2)c2cc(F)ccc12)N1CCC(c2ccccc2C(F)(F)F)CC1 [Compound 61]	antagonize RBP4-TTR interaction in vitro at biologically significant concentrations	
O=C(c1n[nH]c2ccc(Cl)cc12)N1CCC(c2ccccc2C(F)(F)F)CC1 [Compound 64]	antagonize RBP4-TTR interaction in vitro at biologically significant concentrations	bind RBP4 in vitro
O=C(c1n[nH]c2c(Cl)cccc12)N1CCC(c2ccccc2C(F)(F)F)CC1 [Compound 67]	antagonize RBP4-TTR interaction in vitro at biologically significant concentrations	bind RBP4 in vitro
O=C(c1cc2ncccc2[nH]1)N1CCC(c2ccccc2C(F)(F)F)CC1 [Compound 70]	antagonize RBP4-TTR interaction in vitro at biologically significant concentrations	bind RBP4 in vitro
O=C(c1noc2ccccc12)N1CCC(c2ccccc2C(F)(F)F)CC1 [Compound 83]	antagonize RBP4-TTR interaction in vitro at biologically significant concentrations	bind RBP4 in vitro
COc1ccc2nc(C(=O)N3CCC(c4ccccc4C(F)(F)F)CC3)cn2n1 [Compound 100]	antagonize RBP4-TTR interaction in vitro at biologically significant concentrations	bind RBP4 in vitro
O=C(c1onc2ccccc12)N1CCC(c2ccccc2C(F)(F)F)CC1 [Compound 101]	antagonize RBP4-TTR interaction in vitro at biologically significant concentrations	bind RBP4 in vitro
O=C(c1cn2nc(C3CC3)ccc2n1)N1CCC(c2ccccc2C(F)(F)F)CC1 [Compound 106]	antagonize RBP4-TTR interaction in vitro at biologically significant concentrations	bind RBP4 in vitro
